According to PMC6720452, “Structural Basis for Recruitment of DAPK1 to the KLHL20 E3 Ligase” (Structure(London, England:1993), 2019):
These are yes or no findings as the source states them, for the method shown.

Target: T1, KLHL20 Kelch domain (human) (UniProt Q9Y2M5)
T1 sequence: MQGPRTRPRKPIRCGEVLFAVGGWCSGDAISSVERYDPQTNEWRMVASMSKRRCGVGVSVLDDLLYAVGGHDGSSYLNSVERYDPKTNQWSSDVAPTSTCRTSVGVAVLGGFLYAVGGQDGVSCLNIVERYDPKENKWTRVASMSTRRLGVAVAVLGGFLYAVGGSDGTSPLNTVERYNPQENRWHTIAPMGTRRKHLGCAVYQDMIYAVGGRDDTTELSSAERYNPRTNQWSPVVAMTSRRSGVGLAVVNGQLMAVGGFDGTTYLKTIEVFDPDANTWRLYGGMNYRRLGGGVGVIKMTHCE
Assay: SPR; BIACORE S200, 25°C; Kelch domains of KLHL20 and KLHL3 immobilised by amine coupling on CM5; peptides injected at 1.6-200 μM in HBS-P, 30 μL/min; one-site steady-state affinity fit; both purified

binding: no binding (tested: 200 μM)
Binder: SKLRELGRRDAADFLLKA [DAPK02 Peptide (DAPK1 residues 1,378-1,395)]
